Binding data for three substances are collected here from paper PMC8170441.

Amino acid sequences for entries named in this document (tags omitted). A change or cut given only in a name is not applied to a line headed by its entry. Chains listed by the source or under a name are the forms on record and can include a tag or linker.
p97-E578Q-Strep (dominant-negative, substrate-trapping p97 variant) (P55072, form named): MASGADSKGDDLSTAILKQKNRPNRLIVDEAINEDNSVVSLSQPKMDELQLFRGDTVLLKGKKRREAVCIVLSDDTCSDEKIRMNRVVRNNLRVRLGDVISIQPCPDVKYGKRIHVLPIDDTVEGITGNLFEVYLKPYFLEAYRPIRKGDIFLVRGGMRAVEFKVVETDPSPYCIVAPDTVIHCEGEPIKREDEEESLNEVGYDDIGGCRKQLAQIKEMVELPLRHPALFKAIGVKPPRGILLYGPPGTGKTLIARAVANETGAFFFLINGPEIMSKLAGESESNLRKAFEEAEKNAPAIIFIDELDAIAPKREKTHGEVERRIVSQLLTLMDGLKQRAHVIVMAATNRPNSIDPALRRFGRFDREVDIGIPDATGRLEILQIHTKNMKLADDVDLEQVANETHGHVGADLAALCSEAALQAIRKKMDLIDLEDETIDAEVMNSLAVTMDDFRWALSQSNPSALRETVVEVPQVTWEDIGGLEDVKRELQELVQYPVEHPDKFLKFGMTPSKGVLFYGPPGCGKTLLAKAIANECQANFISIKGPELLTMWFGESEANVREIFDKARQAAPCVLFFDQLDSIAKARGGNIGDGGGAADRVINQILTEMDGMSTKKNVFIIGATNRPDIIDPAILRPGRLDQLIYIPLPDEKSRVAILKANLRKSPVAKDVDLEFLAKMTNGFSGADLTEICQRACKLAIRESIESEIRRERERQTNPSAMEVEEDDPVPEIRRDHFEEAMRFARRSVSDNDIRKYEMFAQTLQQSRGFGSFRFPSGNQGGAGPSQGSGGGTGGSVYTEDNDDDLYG
UniProt O60934: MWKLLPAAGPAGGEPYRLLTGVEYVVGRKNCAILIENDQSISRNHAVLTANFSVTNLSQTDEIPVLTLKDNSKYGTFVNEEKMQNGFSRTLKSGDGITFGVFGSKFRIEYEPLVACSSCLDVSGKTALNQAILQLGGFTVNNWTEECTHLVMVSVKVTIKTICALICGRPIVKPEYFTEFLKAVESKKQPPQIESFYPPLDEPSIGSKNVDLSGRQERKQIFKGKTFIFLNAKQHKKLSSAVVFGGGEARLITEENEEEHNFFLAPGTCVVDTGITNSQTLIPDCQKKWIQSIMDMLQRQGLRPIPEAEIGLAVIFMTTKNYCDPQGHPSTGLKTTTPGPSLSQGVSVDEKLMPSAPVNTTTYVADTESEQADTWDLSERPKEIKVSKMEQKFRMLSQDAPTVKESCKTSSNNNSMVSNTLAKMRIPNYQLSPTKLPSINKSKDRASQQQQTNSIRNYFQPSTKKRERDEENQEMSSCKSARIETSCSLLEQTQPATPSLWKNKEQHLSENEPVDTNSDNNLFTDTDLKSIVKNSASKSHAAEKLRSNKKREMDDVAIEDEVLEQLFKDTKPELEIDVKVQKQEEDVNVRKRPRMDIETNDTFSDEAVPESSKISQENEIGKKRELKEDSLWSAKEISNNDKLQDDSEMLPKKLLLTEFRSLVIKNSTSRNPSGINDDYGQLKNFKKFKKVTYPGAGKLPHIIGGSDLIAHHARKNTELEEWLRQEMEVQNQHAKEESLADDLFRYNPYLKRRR
UniProt Q92878: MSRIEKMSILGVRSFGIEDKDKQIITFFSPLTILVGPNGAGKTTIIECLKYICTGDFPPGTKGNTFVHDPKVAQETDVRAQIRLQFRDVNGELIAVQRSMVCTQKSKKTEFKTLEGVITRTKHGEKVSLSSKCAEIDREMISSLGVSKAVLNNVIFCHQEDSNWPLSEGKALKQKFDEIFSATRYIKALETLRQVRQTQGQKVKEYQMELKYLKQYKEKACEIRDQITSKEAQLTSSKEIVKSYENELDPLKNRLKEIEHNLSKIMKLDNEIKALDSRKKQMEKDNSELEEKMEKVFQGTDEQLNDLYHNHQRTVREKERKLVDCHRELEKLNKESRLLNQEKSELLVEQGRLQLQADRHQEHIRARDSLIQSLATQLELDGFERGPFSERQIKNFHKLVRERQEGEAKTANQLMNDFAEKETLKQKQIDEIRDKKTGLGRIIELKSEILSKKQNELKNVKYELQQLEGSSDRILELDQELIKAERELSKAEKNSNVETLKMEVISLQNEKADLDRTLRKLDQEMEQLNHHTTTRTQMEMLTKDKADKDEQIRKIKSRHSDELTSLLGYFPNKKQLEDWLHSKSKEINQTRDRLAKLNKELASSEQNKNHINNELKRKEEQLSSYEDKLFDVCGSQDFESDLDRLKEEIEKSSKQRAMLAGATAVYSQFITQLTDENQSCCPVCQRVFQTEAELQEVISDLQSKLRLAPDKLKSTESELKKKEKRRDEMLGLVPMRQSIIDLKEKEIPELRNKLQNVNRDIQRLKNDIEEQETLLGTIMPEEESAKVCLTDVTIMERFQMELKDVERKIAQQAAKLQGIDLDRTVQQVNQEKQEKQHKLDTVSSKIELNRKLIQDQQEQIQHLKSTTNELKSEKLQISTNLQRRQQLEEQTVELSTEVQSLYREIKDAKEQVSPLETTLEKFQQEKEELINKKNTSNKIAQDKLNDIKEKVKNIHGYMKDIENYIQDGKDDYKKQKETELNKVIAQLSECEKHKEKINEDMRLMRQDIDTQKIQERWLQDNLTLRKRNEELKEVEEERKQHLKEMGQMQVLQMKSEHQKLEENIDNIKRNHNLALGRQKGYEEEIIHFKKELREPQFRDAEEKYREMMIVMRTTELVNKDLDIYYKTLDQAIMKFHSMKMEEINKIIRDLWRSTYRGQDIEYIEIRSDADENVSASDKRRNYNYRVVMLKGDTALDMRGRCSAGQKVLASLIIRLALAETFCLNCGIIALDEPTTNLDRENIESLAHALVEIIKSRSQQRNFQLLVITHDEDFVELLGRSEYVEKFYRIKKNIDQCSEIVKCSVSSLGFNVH

Results are given in words; binding and its absence hold for the method and conditions named. In cells and extracts the contact can be indirect. Some binding calls cover weakened binding; strength is not graded here. For some of these results: Where a sequence is shown, tags or fusion partners need not be part of it.

The target of experiment [1] is p97 (endogenous, HEK293) (human (endogenous in HEK293)) (UniProt P55072). Nature of the experiment: co-IP; endogenous p97 precipitated with p97 antibody (Proteintech 10736-1-AP) and protein A magnetic beads from digested chromatin fraction of HEK293 cells; with or without IR (10 Gy); Western blot.
Experiment [2] has as its target p97-E578Q-Strep (dominant-negative, substrate-trapping p97 variant) (UniProt P55072). Description: co-IP; DOX-induced p97-EQ-Strep isolated with MagStrep type3 XT beads from benzonase/RNase-digested chromatin fraction of HEK293 Flp-In cells; with or without IR (10 Gy); Western blot.
Another experiment has as its target T1, HA-MRE11 (UniProt P49959).
T1 sequence: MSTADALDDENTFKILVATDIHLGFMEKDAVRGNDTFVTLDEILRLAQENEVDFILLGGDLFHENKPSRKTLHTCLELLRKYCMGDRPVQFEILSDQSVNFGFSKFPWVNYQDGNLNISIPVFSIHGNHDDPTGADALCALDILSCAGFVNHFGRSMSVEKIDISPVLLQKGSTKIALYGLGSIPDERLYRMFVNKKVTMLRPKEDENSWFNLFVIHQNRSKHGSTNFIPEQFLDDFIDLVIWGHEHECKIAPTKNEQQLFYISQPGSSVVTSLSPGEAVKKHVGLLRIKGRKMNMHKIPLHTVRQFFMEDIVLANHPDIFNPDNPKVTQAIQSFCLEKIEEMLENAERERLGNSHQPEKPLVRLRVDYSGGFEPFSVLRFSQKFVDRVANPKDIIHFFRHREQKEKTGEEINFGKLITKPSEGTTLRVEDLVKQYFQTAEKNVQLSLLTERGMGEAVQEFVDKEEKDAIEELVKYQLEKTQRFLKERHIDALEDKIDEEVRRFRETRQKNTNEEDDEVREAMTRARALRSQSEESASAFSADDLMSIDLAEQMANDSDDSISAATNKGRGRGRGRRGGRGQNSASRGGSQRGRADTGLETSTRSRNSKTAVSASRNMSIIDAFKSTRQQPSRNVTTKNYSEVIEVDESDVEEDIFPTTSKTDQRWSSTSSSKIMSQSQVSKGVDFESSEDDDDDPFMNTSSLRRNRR
Nature of the experiment: co-IP; HA-MRE11 precipitated with anti-HA magnetic beads from benzonase/RNase-digested chromatin fraction of T24 cells; with or without CB-5083 (10 uM) and IR (10 Gy); Western blot.

Regarding “NBS1 (endogenous, HEK293) (from UniProt O60934 1-754)”, the binding entry in experiment [1] is on record as “binds”.

“RAD50 (endogenous, HEK293) (from UniProt Q92878 1-1312)”: the binding entry in experiment [1] and in experiment [2] was “binds” each time.

Consider “p97 (endogenous, T24) (from UniProt P55072 1-806) (enzyme)”, for which the binding result with HA-MRE11 is reported as “binds”.
